From article doi:10.1101/2025.04.04.647281

Protein sequences, listed by entry. Tags and fused reporters are not part of them. Lines headed by an entry give the natural chain unless they say otherwise; changes in a name come on top.
UniProt Q05783: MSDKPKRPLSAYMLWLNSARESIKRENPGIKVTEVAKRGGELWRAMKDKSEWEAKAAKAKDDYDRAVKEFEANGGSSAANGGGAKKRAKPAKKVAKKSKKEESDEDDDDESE
UniProt P49846: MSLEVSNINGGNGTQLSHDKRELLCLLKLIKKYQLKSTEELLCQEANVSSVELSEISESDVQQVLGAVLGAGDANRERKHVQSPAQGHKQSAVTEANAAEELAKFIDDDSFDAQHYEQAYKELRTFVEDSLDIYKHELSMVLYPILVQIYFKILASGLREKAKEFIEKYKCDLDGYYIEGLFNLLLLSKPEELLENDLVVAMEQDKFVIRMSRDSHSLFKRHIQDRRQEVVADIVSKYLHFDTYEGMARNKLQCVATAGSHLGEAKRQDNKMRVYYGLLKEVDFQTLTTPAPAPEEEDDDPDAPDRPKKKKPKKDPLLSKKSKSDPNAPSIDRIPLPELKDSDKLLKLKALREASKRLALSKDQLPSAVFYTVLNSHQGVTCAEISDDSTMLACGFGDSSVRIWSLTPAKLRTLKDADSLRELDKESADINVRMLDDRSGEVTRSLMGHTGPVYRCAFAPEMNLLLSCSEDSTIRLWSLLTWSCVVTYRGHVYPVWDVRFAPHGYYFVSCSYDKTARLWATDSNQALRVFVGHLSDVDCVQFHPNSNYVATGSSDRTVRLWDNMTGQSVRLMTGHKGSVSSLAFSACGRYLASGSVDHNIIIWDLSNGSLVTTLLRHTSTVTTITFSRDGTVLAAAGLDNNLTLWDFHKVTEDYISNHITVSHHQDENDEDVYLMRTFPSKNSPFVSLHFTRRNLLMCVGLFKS
UniProt P21187, whole entry: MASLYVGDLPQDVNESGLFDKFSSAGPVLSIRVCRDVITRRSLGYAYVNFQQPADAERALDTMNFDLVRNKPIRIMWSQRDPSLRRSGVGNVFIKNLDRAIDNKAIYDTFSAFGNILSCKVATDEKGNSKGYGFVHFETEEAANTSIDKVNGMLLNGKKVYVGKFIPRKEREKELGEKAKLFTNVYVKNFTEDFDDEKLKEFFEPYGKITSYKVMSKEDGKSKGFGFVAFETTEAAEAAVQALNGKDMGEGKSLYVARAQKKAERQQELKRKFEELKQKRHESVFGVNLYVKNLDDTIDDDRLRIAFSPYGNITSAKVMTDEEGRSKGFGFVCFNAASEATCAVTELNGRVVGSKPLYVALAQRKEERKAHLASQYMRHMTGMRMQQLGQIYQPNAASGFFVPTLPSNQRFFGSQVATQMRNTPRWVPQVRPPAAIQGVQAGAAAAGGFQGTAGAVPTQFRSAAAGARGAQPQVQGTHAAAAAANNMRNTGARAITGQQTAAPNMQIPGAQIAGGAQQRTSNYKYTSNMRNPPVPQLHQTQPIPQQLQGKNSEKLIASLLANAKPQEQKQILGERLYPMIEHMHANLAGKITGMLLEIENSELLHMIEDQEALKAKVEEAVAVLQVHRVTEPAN
UniProt Q9NKV0: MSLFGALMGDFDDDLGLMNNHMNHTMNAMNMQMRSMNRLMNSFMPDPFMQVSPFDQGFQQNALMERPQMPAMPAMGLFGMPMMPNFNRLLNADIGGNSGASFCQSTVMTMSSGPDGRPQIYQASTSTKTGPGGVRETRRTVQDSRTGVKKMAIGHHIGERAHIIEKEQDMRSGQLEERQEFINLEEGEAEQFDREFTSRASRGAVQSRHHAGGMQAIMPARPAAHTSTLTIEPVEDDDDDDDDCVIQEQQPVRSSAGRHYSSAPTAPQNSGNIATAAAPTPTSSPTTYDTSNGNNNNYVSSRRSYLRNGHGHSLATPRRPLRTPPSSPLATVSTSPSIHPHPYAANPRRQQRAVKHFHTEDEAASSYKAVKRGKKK
UniProt Q9VIP9: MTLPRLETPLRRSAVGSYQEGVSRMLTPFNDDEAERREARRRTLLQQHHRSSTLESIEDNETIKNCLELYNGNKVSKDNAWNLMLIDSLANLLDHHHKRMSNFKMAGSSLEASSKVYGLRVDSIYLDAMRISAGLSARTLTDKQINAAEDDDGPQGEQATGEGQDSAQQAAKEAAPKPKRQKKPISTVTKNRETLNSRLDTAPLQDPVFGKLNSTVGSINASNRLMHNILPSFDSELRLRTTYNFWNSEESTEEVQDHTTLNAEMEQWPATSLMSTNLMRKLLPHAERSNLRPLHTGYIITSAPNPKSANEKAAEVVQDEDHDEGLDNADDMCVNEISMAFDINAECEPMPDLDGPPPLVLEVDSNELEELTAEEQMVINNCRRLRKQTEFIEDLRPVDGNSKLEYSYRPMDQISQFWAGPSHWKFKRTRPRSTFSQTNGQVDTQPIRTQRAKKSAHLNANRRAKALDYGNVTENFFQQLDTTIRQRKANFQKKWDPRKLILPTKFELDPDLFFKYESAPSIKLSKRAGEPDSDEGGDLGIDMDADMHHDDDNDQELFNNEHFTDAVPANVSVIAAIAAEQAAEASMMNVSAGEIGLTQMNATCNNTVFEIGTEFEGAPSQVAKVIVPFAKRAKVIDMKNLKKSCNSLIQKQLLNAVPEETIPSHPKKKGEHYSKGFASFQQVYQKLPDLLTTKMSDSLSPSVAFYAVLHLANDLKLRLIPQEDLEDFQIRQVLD
UniProt Q9V4C8: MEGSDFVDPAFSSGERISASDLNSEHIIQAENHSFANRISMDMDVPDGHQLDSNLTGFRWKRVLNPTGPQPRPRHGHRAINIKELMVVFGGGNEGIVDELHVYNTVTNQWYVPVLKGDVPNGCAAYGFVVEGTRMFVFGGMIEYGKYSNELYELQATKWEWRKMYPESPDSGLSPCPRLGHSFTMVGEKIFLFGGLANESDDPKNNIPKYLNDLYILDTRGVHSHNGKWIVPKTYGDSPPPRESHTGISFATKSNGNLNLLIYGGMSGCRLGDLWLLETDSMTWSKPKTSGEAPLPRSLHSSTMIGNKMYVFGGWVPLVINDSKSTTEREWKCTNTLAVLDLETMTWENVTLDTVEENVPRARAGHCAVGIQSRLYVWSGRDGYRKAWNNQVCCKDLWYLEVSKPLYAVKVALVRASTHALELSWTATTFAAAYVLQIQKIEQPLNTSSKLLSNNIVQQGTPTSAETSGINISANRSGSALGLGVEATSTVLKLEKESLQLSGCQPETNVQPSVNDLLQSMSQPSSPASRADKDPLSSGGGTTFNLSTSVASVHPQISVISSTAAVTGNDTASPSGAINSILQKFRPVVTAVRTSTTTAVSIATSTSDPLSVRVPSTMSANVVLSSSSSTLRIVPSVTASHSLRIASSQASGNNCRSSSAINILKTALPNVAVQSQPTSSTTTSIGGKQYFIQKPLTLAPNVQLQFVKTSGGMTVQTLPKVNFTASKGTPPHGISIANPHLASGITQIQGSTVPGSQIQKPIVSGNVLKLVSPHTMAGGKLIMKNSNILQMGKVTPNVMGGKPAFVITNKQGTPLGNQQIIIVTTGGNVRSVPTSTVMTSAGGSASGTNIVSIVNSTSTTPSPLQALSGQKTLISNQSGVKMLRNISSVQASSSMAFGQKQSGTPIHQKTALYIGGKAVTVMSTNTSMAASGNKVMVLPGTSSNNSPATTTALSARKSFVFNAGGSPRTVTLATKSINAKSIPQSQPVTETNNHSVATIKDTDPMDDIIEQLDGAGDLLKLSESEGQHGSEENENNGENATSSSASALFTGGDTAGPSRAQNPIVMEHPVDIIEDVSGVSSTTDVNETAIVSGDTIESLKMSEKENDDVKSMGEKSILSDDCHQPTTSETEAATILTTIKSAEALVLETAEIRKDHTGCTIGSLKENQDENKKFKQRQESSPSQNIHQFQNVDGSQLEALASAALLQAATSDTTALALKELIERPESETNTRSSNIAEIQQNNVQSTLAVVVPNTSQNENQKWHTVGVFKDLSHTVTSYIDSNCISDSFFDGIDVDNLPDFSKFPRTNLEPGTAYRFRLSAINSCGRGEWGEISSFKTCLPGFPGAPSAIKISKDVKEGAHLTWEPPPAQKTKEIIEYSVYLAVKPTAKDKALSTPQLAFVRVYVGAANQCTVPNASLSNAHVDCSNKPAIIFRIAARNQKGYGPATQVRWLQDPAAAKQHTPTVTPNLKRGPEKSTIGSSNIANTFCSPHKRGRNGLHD
UniProt Q8T8R1: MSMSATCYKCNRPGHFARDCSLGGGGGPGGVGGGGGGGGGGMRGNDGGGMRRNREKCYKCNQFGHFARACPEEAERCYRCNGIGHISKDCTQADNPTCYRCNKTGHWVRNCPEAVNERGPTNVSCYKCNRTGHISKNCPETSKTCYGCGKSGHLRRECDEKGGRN
UniProt P49847: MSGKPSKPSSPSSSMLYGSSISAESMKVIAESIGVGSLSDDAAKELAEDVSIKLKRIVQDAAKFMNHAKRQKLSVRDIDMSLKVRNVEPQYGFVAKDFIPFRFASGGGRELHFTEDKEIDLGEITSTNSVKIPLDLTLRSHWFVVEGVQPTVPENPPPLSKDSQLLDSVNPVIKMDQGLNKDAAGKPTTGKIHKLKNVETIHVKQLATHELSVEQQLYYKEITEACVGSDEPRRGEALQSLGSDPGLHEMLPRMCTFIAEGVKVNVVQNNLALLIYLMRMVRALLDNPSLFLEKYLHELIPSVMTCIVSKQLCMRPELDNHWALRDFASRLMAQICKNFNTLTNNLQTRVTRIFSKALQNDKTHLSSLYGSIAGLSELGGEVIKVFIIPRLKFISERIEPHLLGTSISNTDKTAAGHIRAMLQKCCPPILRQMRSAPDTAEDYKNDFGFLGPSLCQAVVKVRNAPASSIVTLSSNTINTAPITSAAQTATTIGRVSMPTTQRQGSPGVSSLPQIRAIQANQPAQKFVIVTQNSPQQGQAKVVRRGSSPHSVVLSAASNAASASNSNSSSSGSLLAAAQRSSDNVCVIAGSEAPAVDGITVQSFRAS
UniProt Q9VKM1: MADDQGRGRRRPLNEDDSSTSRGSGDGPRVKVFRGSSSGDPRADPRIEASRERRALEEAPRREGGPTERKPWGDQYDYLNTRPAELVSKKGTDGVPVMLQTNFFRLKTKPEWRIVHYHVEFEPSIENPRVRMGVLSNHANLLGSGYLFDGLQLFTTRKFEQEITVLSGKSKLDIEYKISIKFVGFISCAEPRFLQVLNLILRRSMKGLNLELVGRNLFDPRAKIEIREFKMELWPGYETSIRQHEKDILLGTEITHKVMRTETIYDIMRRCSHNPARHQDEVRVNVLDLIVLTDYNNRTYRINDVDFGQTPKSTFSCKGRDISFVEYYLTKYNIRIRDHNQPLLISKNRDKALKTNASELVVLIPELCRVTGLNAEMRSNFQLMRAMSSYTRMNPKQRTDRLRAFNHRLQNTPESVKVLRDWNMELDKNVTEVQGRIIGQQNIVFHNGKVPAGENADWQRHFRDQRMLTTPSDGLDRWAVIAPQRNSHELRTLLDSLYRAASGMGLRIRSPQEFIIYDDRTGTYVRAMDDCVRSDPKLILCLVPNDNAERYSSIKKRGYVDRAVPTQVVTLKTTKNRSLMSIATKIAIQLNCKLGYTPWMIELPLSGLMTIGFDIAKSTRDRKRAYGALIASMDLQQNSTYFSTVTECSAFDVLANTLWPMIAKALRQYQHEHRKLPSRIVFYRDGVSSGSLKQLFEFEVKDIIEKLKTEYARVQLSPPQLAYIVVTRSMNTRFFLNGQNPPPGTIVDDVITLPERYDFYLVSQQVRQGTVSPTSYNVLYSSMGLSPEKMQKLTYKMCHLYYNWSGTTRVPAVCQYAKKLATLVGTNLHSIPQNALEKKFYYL
UniProt P49905: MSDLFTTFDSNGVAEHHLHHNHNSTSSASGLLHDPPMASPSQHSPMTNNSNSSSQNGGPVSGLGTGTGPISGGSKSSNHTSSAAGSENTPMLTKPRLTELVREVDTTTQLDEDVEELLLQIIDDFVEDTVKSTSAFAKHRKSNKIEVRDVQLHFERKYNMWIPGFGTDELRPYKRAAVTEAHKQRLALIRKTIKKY
UniProt Q9VNS0: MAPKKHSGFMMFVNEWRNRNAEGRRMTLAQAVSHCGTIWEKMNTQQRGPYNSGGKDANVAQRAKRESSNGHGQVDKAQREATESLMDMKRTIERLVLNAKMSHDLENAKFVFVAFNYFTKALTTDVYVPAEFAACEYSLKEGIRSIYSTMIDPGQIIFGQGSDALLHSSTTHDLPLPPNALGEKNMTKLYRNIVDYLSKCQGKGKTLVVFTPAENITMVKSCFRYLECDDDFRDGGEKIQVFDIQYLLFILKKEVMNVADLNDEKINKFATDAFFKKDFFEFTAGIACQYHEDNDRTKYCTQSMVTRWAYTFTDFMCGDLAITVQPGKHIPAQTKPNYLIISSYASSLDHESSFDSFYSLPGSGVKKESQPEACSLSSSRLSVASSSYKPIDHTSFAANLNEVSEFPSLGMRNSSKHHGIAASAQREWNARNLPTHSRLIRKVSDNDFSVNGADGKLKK

What was measured:
Experiment in all cases: pull-down MS
Details in all cases: azide at one end (5' or 3'), PEG23-bead linked; protein in an extract
[1] = molecular target: HmgD (Drosophila melanogaster) (UniProt Q05783)
[2] = molecular target: Modulo (Drosophila melanogaster) (UniProt P13469)
[3] = molecular target: Larp4B (Drosophila melanogaster) (UniProt Q9I7T7)
[4] = molecular target: TAF5 (Drosophila melanogaster) (UniProt P49846)
[5] = molecular target: Poly(A)-binding protein (Drosophila melanogaster) (UniProt P21187)
[6] = molecular target: Myeloid leukemia factor (Drosophila melanogaster) (UniProt Q9NKV0)
[7] = molecular target: Barren (Drosophila melanogaster) (UniProt Q9VIP9)
[8] = molecular target: Host cell factor (Drosophila melanogaster) (UniProt Q9V4C8)
[9] = molecular target: Topoisomerase II (Drosophila melanogaster) (UniProt P15348)
[10] = molecular target: CNBP (Drosophila melanogaster) (UniProt Q8T8R1)
[11] = molecular target: ATP-dependent DNA helicase RecQ4 (Drosophila melanogaster) (UniProt Q9VSE6)
[12] = molecular target: Mad (Drosophila melanogaster) (UniProt P42003)
[13] = molecular target: CPSF160 (Drosophila melanogaster) (UniProt Q9V726)
[14] = molecular target: Drosocross 3 (Drosophila melanogaster) (UniProt Q9VST0)
[15] = molecular target: Net (Drosophila melanogaster) (UniProt Q9VPI8)
[16] = molecular target: TAF6 (Drosophila melanogaster) (UniProt P49847)
[17] = molecular target: Hmg-2 (Drosophila melanogaster) (UniProt Q9W2K8)
[18] = molecular target: Half pint (Drosophila melanogaster) (UniProt Q8T6B9)
[19] = molecular target: Piwi (Drosophila melanogaster) (UniProt Q9VKM1)
[20] = molecular target: P-element somatic inhibitor (Drosophila melanogaster) (UniProt A1ZAK9)
[21] = molecular target: TAF12 (Drosophila melanogaster) (UniProt P49905)
[22] = molecular target: Maelstrom (Drosophila melanogaster) (UniProt Q9VNS0)

Measured: binding result

GAAGCTTTTTGTTGTTTTTGCAGCTGCCGTTTTCGCCCTT (double strand) [P1/P2 upstream enhancer cluster]
not listed: [22]
binds: all other assays above

GAGCGCGGCAGTCTGGTACGATAGAAATTTTATTTAAGCCACAG (double strand) [P31/P32 TATA promoter]
not listed: [7] | [9] | [10] | [11] | [13] | [14] | [15]
binds: all other assays above

For at least one entry, the source does not settle the construct or the ends of the probe. Where cells or extracts were used, other partners may take part. For part of these data: At least one verdict rests on a figure or table, not on a statement of the authors.
